Reference: PubChem BioAssay AID445 (National Center for Advancing Translational Sciences (NCATS), 2006)
The list shows a part of the results. These are further read-outs of the screen, such as a control signal, another cell line or another target. No call is given for them. Most of these compounds were active or inconclusive in the main read-out, so they are no random draw. Potencies come from curve fits of mixed quality, noted in brackets.

Assay: IkB Signaling
Details: ABC-DLBCL IkBa-CBG/CBR dual luciferase ratio (green luciferase fused to IkBa over red control in OCI-Ly3 lymphoma cells), 4 h; measured here: control luc red channel unless noted
How it was run: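 Curves were fitted separately to fusion (green), unfused (red) and ratio luminescence, then classed by r2, magnitude and activity. Cells: OCI-Ly3, 4 h compound plus doxycycline at 37C; 10 uM MG-132 defined full response.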

Row | Compound | AC50
1 | Cc1ccc2oc(-c3ccc(Cl)c(NC(=O)c4cc5ccccc5o4)c3)nc2c1 | 2 µM [falling, full curve]
2 | COc1ccc(Cl)cc1NC(=O)c1cnc2sc(N3CCOCC3)nn2c1=O | 1.58 µM [falling, full curve]
3 | COc1cc(C(=O)OCC(=O)Nc2ccc3c(c2)OC(F)(F)O3)ccc1OCc1c(C)noc1C | 25.1 µM [falling, partial curve]
4 | CN1CCN(CCNC(=O)c2cnn(-c3ccc(Cl)cc3)c2C2CCN(C(=O)OC(C)(C)C)CC2)CC1 | 25.1 µM [falling, single point]
5 | COc1ccc(CCNC(=O)C(C)n2nc(C)c3sc4ccccc4c3c2=O)c(OC)c1 (stereo unspecified) | 1.58 µM [falling, full curve]
6 | Cc1ccc(S(=O)(=O)Nc2ccc3nc(-c4cccc(Cl)c4)oc3c2)cc1 | 20 µM [falling, partial curve]
7 | Fc1ccc(Nc2nc3ccccc3n3cnnc23)c(F)c1 | 2.51 µM [rising, partial curve]
8 | COc1ccc(NC(=O)c2nc(-c3ccc(C)cc3)n3c2CCCCC3)cc1 | 20 µM [falling, partial curve]
9 | O=C(c1ccc(F)cc1)n1nc(-c2cccnc2)nc1NCc1ccccc1 | 15.8 µM [falling, partial curve]
10 | COc1ccc(-c2nc(NC(=O)c3cc(C(C)(C)C)nn3C)sc2C)cc1 | 10 µM [falling, partial curve]
11 | Cc1nc2nc(CNC(=O)c3cccc(F)c3)nn2c(C)c1CCC(=O)Nc1cccc(Cl)c1 | 20 µM [falling, single point]
12 | Cc1nn(C(C)C(=O)Nc2ccccc2C(F)(F)F)c(=O)c2c1sc1ccccc12 (stereo unspecified) | 7.94 µM [falling, partial curve]
13 | Cc1ccc(Nc2nc3nonc3[nH]c2=O)cc1 | 15.8 µM [falling, single point]
14 | CCc1cc(/C(Cc2ccc3ccccc3n2)=N\O)c(O)cc1O | 0.158 µM [falling, full curve]
15 | Cc1ccc(NC(=O)c2oc3ccc(S(=O)(=O)N4CCC5(CC4)OCCO5)cc3c2C)cc1Cl | 15.8 µM [falling, partial curve]
16 | COc1ccc(-c2nc3cc(NC(=O)COc4ccccc4C)ccc3o2)cc1 | 0.398 µM [rising, full curve]
17 | Cc1ccc(-c2cc(-c3ccccc3Cl)c(C#N)c(N)n2)o1 | 12.6 µM [falling, partial curve]
18 | COc1ccc(-c2nnc(SC(C)C(=O)Nc3ccc4c(c3)OCCO4)o2)cc1 (stereo unspecified) | 25.1 µM [rising, partial curve]
19 | CCCCC(=O)Nc1ccc(Br)cc1C(=O)O | 1.58 µM [falling, full curve]
20 | O=C1CC(Sc2ncccn2)C(=O)N1c1ccccc1C(F)(F)F (stereo unspecified) | 15.8 µM [falling, partial curve]
21 | CCOC(=O)C(C)NC(=O)c1c2c(nc3ccccc13)C(=O)N(C1CCCCC1)C2 (stereo unspecified) | 7.94 µM [falling, full curve]

Arranged by molar mass (ascending): part of the list above.
Row | Compound | AC50
7 | Fc1ccc(Nc2nc3ccccc3n3cnnc23)c(F)c1 | 2.51 µM [rising, partial curve]
20 | O=C1CC(Sc2ncccn2)C(=O)N1c1ccccc1C(F)(F)F (stereo unspecified) | 15.8 µM [falling, partial curve]
8 | COc1ccc(NC(=O)c2nc(-c3ccc(C)cc3)n3c2CCCCC3)cc1 | 20 µM [falling, partial curve]

Remaining list, next part.

Row | Compound | AC50
22 | COc1cc(C(c2c(C)[nH][nH]c2=O)c2c(C)[nH][nH]c2=O)ccc1OC(=O)c1ccccc1OC | 39.8 µM [falling, single point]
23 | Oc1ccccc1-c1cc(-c2ccccc2Cl)[nH]n1 | 39.8 µM [falling, single point]
24 | Nc1nsc2ccccc12 | 15.8 µM [falling, partial curve]
25 | COc1ccccc1CNC(=O)Cn1cc2c(n1)-c1c(oc(C(=O)N3CCOCC3)c1C)CC2 | 15.8 µM [falling, partial curve]
26 | COC(=O)c1sccc1S(=O)(=O)N(CC(=O)Nc1cccc(C)c1C)c1ccc(C)c(C)c1 | 25.1 µM [falling, single point]
27 | COC(=O)C1=C(CSCc2ccco2)NC(=O)NC1c1cc(C)ccc1C (stereo unspecified) | 25.1 µM [falling, partial curve]
28 | COc1ccc(Cl)cc1N1CCN(CCNC(=O)Nc2ccccc2C)CC1 | 15.8 µM [falling, partial curve]
29 | CCc1ccccc1NC(=O)c1ccc2c(c1)CCCN2S(C)(=O)=O | 1 µM [rising, partial curve]
30 | COc1ccc(Cn2c(CO)cnc2SCc2ccc(C)cc2)cc1 | 0.316 µM [falling, full curve, poor fit]
31 | CC(C)(C)OC(=O)N1CCC(c2c(C(=O)N3CCN(Cc4ccccc4)CC3)cnn2-c2cccc(Cl)c2)CC1 | 25.1 µM [falling, single point]
32 | CC(C)CCNC(=O)C1CCN(C(=O)c2cc3sccc3n2Cc2ccc(Cl)cc2)CC1 | 12.6 µM [falling, partial curve]
33 | COc1ccc(-c2nc(CS(=O)CC(=O)NCCc3ccc(Cl)cc3)c(C)o2)cc1OC (stereo unspecified) | 1.26 µM [rising, partial curve]
34 | CCc1ccc(-n2nc(CO)c(C(=O)NC)n2)cc1 | 1.58 µM [rising, partial curve]
35 | COc1ccc(N(C)C(=O)CCC(=O)Nc2ccc3nc(N4CCOCC4)cc(C)c3c2)c(OC)c1 | 10 µM [falling, partial curve]
36 | Cc1ccc2c(CC(=O)Nc3ccc(S(=O)(=O)N4CCCCC4)cc3)coc2c1C | 6.31 µM [falling, partial curve]
37 | Oc1c(C(c2ccc(F)cc2)N2CCN(Cc3ccccc3)CC2)sc2nc(-c3ccco3)nn12 (stereo unspecified) | 39.8 µM [falling, single point]
38 | c1ccc(-c2ccccc2-c2nc(-c3cccnc3)no2)cc1 | 39.8 µM [falling, single point]
39 | CCN(CC)S(=O)(=O)c1ccc2[nH]cc(C(=O)NCCC3=CCCCC3)c(=O)c2c1 | 10 µM [falling, partial curve]
40 | CN1C(=O)C2(c3ccccc31)N(c1cccc(C(F)(F)F)c1)C(=O)CS2(=O)=O (stereo unspecified) | 20 µM [falling, single point]
41 | COc1ccc(Nc2nn3c(=O)c4cc5c(cc4nc3s2)OCO5)c(OC)c1 | 1.58 µM [falling, full curve, poor fit]
